Laboratory results from publication doi:10.1101/2021.03.23.436655.
Changes are numbered by the printed parent chain. In names and notes the source's numbering stands. Results are given in words; binding and its absence hold for the method and conditions named. For part of these data: A result given as binding can be weak or reduced; the word gives no strength. Where a sequence is shown, tags or fusion partners need not be part of it. Values belong to the binder of their own block, whether it stands above or below them.

How the values were obtained:
[1] = molecular target: eIF4E-3 F103A, GAL4 DNA-binding domain fusion (Drosophila melanogaster); assay: two-hybrid
[2] = molecular target: eIF4E-3, GAL4 DNA-binding domain fusion (Drosophila melanogaster); assay: two-hybrid

binding [1]: no binding
binding [2]: binds
B1: Maternal expression at 31B (Me31B), GAL4 activation domain fusion (protein, UniProt P23128 1-459)
chain: MMTEKLNSGHTNLTSKGIINDLQIAGNTSDDMGWKSKLKLPPKDNRFKTTDVTDTRGNEFEEFCLKRELLMGIFEKGWERPSPIQEAAIPIALSGKDVLARAKNGTGKTGAYCIPVLEQIDPTKDYIQALVMVPTRELALQTSQICIELAKHLDIRVMVTTGGTILKDDILRIYQKVQLIIATPGRILDLMDKKVADMSHCRILVLDEADKLLSLDFQGMLDHVILKLPKDPQILLFSATFPLTVKNFMEKHLREPYEINLMEELTLKGVTQYYAFVQERQKVHCLNTLFSKLQINQSIIFCNSTQRVELLAKKITELGYCCYYIHAKMAQAHRNRVFHDFRQGLCRNLVCSDLFTRGIDVQAVNVVINFDFPRMAETYLHRIGRSGRFGHLGIAINLITYEDRFDLHRIEKELGTEIKPIPKVIDPALYVANVGASVGDTCNNSDLNNSANEEGNVSK

binding [2]: no binding
B2: Me31B F63A, GAL4 activation domain fusion (protein, UniProt P23128 1-459)
chain: B1 chain with F63A
